# Experimental data from patent publication US11919932B2, “HMGN partial peptide and cancer therapy using the same” (The University of Tokyo, priority 2018, dated 2024).
# At least one peptide structure holds a part that was inferred or is arguable (an end, a ring closure or a residue). Ends that are not written are not given here.
# Test system: Colon26 large intestine cancer cells
# Assay: Colon26 tumor-bearing mice, HMGN peptide in combination with anti-PD-L1 antibody, tumor volume
# Format: in vivo, mouse
# Description: Seven-week-old male BALB/c mice were used in groups of 8 mice, and Colon26 large intestine cancer cells were subcutaneously transplanted into the right flank at 2×10^5 cells/mouse.
# An anti-mouse PD-L1 antibody (clone 10F.9G2) and an anti-mouse CD4 depleting antibody (clone GK1.5) were purchased from BioXcell.
# The HMGN peptide was intraperitoneally administered at a dose described below four times in total at 9, 14, 17 and 20 days after tumor cell implantation. The anti-mouse PD-L1 antibody was intraperitoneally administered at 200 μg/mouse four times in total at 4, 8, 14 and 18 days after tumor cell implantation. The anti-mouse CD4 antibody was intraperitoneally administered at a dose of 200 μg/mouse twice in total at 5 and 9 days after tumor cell implantation. The long diameter and short diameter of the solid tumor were measured every 3 to 4 days, and tumor volume was calculated by the following calculation formula. Tumor volume (mm^3)=(Long diameter; mm)×(Short diameter; mm)^2×0.5236
sequence,measurement,setting,value
"SADGAAKAEPKRRSARLSAKPAPAKVDAKPKKAAGKD [mPep1, mouse HMGN1 NBD-peptide 1]",tumor volume 24 days after Colon26 tumor cell implantation (FIG. 2),"doses of 30, 300 ng/mouse (mPep2 same molar number), + anti-PD-L1 antibody, vs control group",synergistic effect
same,complete regression of solid tumors at day 24,"mPep1 30, 300 ng/mouse + anti-PD-L1 antibody",4 of 8 mice
same,anti-tumor effect compared with mouse full-length HMGN1 protein,mPep1 30 or 300 ng/mouse vs full-length HMGN1 80 or 800 ng/mouse,equal or higher anti-tumor effect at a dose lower than that of the mouse full-length HMGN1 protein
same,"tumor growth (time-dependent change in tumor volume, FIG. 1)","mPep1 30 or 300 ng/mouse, mPep2 33 or 330 ng/mouse, i.p. four times, + anti-PD-L1 antibody 200 μg/mouse",synergistically suppressed tumor growth
